Data taken from paper doi:10.1101/2021.02.25.432796.
Results are given in words; binding and its absence hold for the method and conditions named. In cells and extracts the contact can be indirect. Some entries that bind do so weakly or less than the wild type.

Amino acid sequences for entries named in this document (tags omitted). Residues count along the entry.
UniProt Q13231, residues 22-466: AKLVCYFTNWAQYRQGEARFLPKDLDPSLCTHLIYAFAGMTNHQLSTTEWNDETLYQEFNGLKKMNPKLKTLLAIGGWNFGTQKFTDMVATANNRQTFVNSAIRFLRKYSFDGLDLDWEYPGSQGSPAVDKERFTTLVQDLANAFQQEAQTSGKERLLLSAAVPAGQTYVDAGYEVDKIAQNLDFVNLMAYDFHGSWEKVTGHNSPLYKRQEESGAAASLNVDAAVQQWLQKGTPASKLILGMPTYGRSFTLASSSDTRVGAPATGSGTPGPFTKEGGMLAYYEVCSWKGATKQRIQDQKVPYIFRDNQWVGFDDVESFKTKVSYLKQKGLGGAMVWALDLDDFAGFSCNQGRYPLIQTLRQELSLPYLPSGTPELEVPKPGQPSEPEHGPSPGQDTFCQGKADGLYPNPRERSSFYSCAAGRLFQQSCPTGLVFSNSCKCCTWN

Target: Chitinase 1 (CHIT1), human (human) (UniProt Q13231)
Test: co-IP

B1: Transforming growth factor beta associated protein 1 (TGFBRAP1) (protein, UniProt Q8WUH2 1-860)
chain: MMSIKAFTLVSAVERELLMGDKERVNIECVECCGRDLYVGTNDCFVYHFLLEERPVPAGPATFTATKQLQRHLGFKKPVNELRAASALNRLLVLCDNSISLVNMLNLEPVPSGARIKGAATFALNENPVSGDPFCVEVCIISVKRRTIQMFLVYEDRVQIVKEVSTAEQPLAVAVDGHFLCLALTTQYIIHNYSTGVSQDLFPYCSEERPPIVKRIGRQEFLLAGPGGLGMFATVAGISQRAPVHWSENVIGAAVSFPYVIALDDEFITVHSMLDQQQKQTLPFKEGHILQDFEGRVIVATSKGVYILVPLPLEKQIQDLLASRRVEEALVLAKGARRNIPKEKFQVMYRRILQQAGFIQFAQLQFLEAKELFRSGQLDVRELISLYPFLLPTSSSFTRSHPPLHEYADLNQLTQGDQEKMAKCKRFLMSYLNEVRSTEVANGYKEDIDTALLKLYAEADHDSLLDLLVTENFCLLTDSAAWLEKHKKYFALGLLYHYNNQDAAAVQLWVNIVNGDVQDSTRSDLYEYIVDFLTYCLDEELVWAYADWVLQKSEEVGVQVFTKRPLDEQQKNSFNPDDIINCLKKYPKALVKYLEHLVIDKRLQKEEYHTHLAVLYLEEVLLQRASASGKGAEATETQAKLRRLLQKSDLYRVHFLLERLQGAGLPMESAILHGKLGEHEKALHILVHELQDFAAAEDYCLWCSEGRDPPHRQQLFHTLLAIYLHAGPTAHELAVAAVDLLNRHATEFDAAQVLQMLPDTWSVQLLCPFLMGAMRDSIHARRTMQVALGLARSENLIYTYDKMKLKGSSIQLSDKKLCQICQNPFCEPVFVRYPNGGLVHTHCAASRHTNPSSSSPGTRT
binding: binds
